The supplement of paper PMC6411743
± gives the standard deviation of the averaged measurements. Some of the results follow.

Target: T1, NPAT (UniProt Q14207)
T1 sequence (whole entry): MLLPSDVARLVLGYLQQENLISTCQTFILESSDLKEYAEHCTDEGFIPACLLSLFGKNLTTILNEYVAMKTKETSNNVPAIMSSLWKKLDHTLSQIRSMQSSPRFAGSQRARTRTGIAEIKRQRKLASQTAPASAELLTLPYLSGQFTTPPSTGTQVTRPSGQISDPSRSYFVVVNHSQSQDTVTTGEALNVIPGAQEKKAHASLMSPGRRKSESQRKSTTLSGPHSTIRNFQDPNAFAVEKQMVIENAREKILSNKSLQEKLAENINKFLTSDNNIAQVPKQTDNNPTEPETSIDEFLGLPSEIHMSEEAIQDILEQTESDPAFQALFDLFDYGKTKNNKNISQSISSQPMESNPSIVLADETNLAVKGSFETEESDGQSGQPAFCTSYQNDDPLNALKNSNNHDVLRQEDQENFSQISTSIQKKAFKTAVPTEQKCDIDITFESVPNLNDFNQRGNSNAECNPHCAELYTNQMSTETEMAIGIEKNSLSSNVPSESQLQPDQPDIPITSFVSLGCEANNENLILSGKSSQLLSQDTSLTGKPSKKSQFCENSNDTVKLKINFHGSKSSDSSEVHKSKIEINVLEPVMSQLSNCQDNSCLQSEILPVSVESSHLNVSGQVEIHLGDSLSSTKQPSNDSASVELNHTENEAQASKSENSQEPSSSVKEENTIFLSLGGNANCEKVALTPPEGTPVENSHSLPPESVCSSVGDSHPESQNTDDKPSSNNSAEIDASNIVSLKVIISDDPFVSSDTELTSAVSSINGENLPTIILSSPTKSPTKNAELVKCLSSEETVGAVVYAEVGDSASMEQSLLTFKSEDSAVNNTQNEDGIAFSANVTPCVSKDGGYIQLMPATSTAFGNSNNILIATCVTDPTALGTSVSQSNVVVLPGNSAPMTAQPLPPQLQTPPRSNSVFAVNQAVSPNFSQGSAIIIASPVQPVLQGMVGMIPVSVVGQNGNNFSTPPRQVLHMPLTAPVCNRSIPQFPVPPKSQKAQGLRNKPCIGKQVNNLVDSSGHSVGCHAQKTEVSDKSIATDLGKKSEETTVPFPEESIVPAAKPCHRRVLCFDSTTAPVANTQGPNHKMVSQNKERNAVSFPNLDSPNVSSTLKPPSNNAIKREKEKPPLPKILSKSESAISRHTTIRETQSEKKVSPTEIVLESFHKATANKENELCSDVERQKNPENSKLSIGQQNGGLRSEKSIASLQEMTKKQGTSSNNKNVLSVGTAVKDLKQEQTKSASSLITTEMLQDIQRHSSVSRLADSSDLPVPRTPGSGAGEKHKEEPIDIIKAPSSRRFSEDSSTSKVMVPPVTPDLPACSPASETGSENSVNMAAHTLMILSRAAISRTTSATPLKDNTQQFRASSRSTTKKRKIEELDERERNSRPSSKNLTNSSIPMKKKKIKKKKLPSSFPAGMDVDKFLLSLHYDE
Assay: NP40-soluble protein abundance relative to vehicle (solubility fold change) (ratio); higher = more soluble protein in presence of GTP
Method: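 Solubility proteome profiling in Jurkat crude lysate. Lysate was treated with Mg-GTP (0.1-10 mM) for 10 min at room temperature and 3 min at 37 °C, then solubilised with 0.8% NP40 and benzonase, followed by ultracentrifugation. Proteins were quantified by TMT10 LC-MS/MS; the value is the NP40-soluble abundance relative to the NP40-processed vehicle, from 3 independent experiments.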

Structure (SMILES): Nc1nc2c(ncn2[C@@H]2O[C@H](COP(=O)(O)OP(=O)(O)OP(=O)(O)O)[C@@H](O)[C@H]2O)c(=O)[nH]1 [guanosine triphosphate]
- NP40-soluble protein abundance (concentration: 0.1mM): 1.06 ± 0.073
- NP40-soluble protein abundance (concentration: 0.5mM): 1.06 ± 0.029
- NP40-soluble protein abundance (concentration: 1mM): 1.15 ± 0.049
- NP40-soluble protein abundance (concentration: 2mM): 1.11 ± 0.052
- NP40-soluble protein abundance (concentration: 4mM): 1.16 ± 0.041
- NP40-soluble protein abundance (concentration: 6mM): 1.2 ± 0.077
- NP40-soluble protein abundance (concentration: 8mM): 1.16 ± 0.071
- NP40-soluble protein abundance (concentration: 10mM): 1.15 ± 0.057
